Experimental data reported in publication PMC4389229.
Read-outs that look alike come from different tables or passages of the source. Results are given in words; binding and its absence hold for the method and conditions named. In cells and extracts the contact can be indirect. A yes stands for co-enrichment or nearness to the bait. Other partners may have been found. For part of these data: Sequences can lack the tags named with a protein.

The chains behind the UniProt entries cited, without tags or fusion partners.
UniProt P22336: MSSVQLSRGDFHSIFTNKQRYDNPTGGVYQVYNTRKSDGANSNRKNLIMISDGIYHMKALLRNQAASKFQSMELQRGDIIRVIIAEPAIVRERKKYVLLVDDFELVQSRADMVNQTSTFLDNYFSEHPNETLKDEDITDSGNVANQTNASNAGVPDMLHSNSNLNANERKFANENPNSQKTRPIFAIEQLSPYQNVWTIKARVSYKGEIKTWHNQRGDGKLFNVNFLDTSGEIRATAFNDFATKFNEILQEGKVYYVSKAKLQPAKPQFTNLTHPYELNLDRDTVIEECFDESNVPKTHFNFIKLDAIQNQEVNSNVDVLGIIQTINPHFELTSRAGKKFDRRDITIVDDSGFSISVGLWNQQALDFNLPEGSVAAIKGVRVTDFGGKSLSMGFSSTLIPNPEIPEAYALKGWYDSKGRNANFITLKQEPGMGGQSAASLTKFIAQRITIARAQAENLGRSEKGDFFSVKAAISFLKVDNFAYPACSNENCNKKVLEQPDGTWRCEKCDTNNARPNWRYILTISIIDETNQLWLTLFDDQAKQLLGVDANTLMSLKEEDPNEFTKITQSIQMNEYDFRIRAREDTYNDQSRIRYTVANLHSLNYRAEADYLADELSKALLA
UniProt P13010: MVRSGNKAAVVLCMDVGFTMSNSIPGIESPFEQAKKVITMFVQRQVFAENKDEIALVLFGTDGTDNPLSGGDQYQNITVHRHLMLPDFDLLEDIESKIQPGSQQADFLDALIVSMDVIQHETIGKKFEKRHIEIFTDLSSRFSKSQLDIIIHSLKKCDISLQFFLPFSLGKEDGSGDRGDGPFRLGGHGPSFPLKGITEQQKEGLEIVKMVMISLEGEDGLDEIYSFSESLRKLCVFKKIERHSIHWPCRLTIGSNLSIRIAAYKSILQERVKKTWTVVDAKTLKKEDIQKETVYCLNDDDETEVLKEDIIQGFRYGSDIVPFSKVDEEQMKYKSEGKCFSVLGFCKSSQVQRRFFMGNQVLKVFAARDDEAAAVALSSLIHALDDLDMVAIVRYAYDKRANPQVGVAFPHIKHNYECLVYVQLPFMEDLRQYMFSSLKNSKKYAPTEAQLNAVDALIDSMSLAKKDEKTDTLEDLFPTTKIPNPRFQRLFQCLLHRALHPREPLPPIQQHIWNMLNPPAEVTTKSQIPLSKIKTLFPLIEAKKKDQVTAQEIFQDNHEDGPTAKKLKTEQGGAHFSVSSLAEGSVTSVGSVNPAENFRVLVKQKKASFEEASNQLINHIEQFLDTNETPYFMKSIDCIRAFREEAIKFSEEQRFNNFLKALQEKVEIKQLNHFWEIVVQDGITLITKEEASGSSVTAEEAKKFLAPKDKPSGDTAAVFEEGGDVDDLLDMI
UniProt P12956: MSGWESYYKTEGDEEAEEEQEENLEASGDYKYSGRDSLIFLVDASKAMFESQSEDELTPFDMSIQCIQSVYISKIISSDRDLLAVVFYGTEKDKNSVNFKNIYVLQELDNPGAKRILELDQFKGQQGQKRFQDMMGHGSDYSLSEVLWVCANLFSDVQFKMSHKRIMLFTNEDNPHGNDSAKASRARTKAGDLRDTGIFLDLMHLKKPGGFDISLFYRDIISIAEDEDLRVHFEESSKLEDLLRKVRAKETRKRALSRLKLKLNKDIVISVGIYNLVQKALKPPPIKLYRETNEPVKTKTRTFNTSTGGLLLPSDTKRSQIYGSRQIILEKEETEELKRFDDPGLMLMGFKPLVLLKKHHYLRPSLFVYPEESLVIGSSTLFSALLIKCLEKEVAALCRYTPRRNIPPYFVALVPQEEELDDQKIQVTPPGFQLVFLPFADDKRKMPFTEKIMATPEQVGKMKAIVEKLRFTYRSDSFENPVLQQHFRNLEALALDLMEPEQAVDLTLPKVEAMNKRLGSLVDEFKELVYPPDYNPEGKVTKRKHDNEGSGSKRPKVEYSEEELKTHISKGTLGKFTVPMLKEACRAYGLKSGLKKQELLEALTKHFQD

T1: Cmr1-YFP (S. cerevisiae) (UniProt Q12510)
T1 sequence: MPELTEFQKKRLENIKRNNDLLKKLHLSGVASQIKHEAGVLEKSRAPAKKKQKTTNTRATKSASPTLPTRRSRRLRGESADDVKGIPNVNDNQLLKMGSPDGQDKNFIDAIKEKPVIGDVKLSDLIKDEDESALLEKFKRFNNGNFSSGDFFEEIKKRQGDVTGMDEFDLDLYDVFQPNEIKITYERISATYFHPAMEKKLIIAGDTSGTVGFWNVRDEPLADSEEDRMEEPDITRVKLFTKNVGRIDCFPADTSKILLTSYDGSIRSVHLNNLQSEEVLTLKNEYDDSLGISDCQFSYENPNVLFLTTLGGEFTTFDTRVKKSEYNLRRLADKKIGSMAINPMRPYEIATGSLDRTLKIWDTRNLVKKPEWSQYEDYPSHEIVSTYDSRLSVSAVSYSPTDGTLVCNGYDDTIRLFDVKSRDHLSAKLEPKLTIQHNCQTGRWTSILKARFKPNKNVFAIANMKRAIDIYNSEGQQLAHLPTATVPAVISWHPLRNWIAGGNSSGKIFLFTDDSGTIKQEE

T2: GFP-WDR76 (human) (UniProt Q9H967)
T2 sequence: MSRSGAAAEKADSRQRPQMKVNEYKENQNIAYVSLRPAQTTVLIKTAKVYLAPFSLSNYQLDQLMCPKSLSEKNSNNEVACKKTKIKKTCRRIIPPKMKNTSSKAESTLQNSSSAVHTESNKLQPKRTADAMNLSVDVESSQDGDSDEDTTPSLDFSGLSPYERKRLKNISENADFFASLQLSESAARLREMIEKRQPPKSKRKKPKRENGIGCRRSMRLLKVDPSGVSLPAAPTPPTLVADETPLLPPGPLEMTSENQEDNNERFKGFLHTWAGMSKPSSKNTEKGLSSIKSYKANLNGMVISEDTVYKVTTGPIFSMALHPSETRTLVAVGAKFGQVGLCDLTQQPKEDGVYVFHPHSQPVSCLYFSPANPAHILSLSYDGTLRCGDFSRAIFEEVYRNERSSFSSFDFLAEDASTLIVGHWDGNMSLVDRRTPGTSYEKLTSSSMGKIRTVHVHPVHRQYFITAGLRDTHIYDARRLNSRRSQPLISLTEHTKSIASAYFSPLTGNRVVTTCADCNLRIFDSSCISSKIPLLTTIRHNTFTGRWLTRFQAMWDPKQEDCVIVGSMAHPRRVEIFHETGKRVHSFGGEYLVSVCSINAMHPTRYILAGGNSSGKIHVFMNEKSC

B1: Cmr1 (changed mutation rate 1) (protein, UniProt Q12510 1-522)
chain: T1 sequence
B2: SUGT1 (protein, UniProt Q9Y2Z0 1-365)
chain: MAAAAAGTATSQRFFQSFSDALIDEDPQAALEELTKALEQKPDDAQYYCQRAYCHILLGNYCVAVADAKKSLELNPNNSTAMLRKGICEYHEKNYAAALETFTEGQKLDIETGFHRVGQAGLQLLTSSDPPALDSQSAGITGADANFSVWIKRCQEAQNGSESEVWTHQSKIKYDWYQTESQVVITLMIKNVQKNDVNVEFSEKELSALVKLPSGEDYNLKLELLHPIIPEQSTFKVLSTKIEIKLKKPEAVRWEKLEGQGDVPTPKQFVADVKNLYPSSSPYTRNWDKLVGEIKEEEKNEKLEGDAALNRLFQQIYSDGSDEVKRAMNKSFMESGGTVLSTNWSDVGKRKVEINPPDDMEWKKY
B3: HELLS (protein, UniProt Q9NRZ9 1-838)
chain: MPAERPAGSGGSEAPAMVEQLDTAVITPAMLEEEEQLEAAGLERERKMLEKARMSWDRESTEIRYRRLQHLLEKSNIYSKFLLTKMEQQQLEEQKKKEKLERKKESLKVKKGKNSIDASEEKPVMRKKRGREDESYNISEVMSKEEILSVAKKNKKENEDENSSSTNLCVEDLQKNKDSNSIIKDRLSETVRQNTKFFFDPVRKCNGQPVPFQQPKHFTGGVMRWYQVEGMEWLRMLWENGINGILADEMGLGKTVQCIATIALMIQRGVPGPFLVCGPLSTLPNWMAEFKRFTPDIPTMLYHGTQEERQKLVRNIYKRKGTLQIHPVVITSFEIAMRDRNALQHCYWKYLIVDEGHRIKNMKCRLIRELKRFNADNKLLLTGTPLQNNLSELWSLLNFLLPDVFDDLKSFESWFDITSLSETAEDIIAKEREQNVLHMLHQILTPFLLRRLKSDVALEVPPKREVVVYAPLSKKQEIFYTAIVNRTIANMFGSSEKETIELSPTGRPKRRTRKSINYSKIDDFPNELEKLISQIQPEVDRERAVVEVNIPVESEVNLKLQNIMMLLRKCCNHPYLIEYPIDPVTQEFKIDEELVTNSGKFLILDRMLPELKKRGHKVLLFSQMTSMLDILMDYCHLRDFNFSRLDGSMSYSEREKNMHSFNTDPEVFIFLVSTRAGGLGINLTAADTVIIYDSDWNPQSDLQAQDRCHRIGQTKPVVVYRLVTANTIDQKIVERAAAKRKLEKLIIHKNHFKGGQSGLNLSKNFLDPKELMELLKSRDYEREIKGSREKVISDKDLELLLDRSDLIDQMNASGPIKEKMGIFKILENSEDSSPECLF

How the values were obtained:
Cmr1-YFP (S. cerevisiae) = target: T1, Cmr1-YFP (S. cerevisiae); experiment: affinity purification with mass spectrometry; SILAC-labelled S. cerevisiae expressing a YFP-tagged bait against an untagged control, forward and label-swap; cells treated with 200 ug/ml zeocin for 2 h (Rad52-YFP) or 0.03% MMS for 2 h (Rfa1-YFP, Cmr1-YFP); whole-cell extracts (10 mM Tris-HCl pH 7.5, 150 mM NaCl, 0.5% NP40, no EDTA) on GFP-Trap_A beads, 2 h at 4 C; LC-MS/MS
GFP-WDR76 (human) [1] = target: T2, GFP-WDR76 (human); experiment: affinity purification with mass spectrometry; SILAC-labelled HeLa cells transfected with GFP-WDR76 or empty vector, lysed after 48 h in modified RIPA buffer (50 mM Tris-HCl pH 7.5, 150 mM NaCl, 1% NP-40, 0.1% Na-deoxycholate, 1 mM EDTA); GFP-Trap resin for 2 h; in-gel digestion, LC-MS/MS
Rfa1-YFP (S. cerevisiae) = Rfa1-YFP (S. cerevisiae) (UniProt P22336); experiment: affinity purification with mass spectrometry; SILAC-labelled S. cerevisiae expressing a YFP-tagged bait against an untagged control, forward and label-swap; cells treated with 200 ug/ml zeocin for 2 h (Rad52-YFP) or 0.03% MMS for 2 h (Rfa1-YFP, Cmr1-YFP); whole-cell extracts (10 mM Tris-HCl pH 7.5, 150 mM NaCl, 0.5% NP40, no EDTA) on GFP-Trap_A beads, 2 h at 4 C; LC-MS/MS
GFP-WDR76 (human) [2] = target: T2, GFP-WDR76 (human); experiment: affinity purification with mass spectrometry; SILAC-labelled HeLa cells transfected with GFP-WDR76 or empty vector, lysed after 48 h in modified RIPA buffer (50 mM Tris-HCl pH 7.5, 150 mM NaCl, 1% NP-40, 0.1% Na-deoxycholate, 1 mM EDTA); GFP-Trap resin for 2 h; in-gel digestion, LC-MS/MS; remark: listed apart in the source

| Molecule | binding (GFP-WDR76 (human) [1]) | binding (GFP-WDR76 (human) [2]) | further results |
| --- | --- | --- | --- |
| Rfa1 (from UniProt P22336 1-621) |  |  | binding (Cmr1-YFP (S. cerevisiae)): binds |
| XRCC5 (from UniProt P13010 1-732) | binds |  |  |
| XRCC6 (from UniProt P12956 1-609) | binds |  |  |
| B1 |  |  | binding (Rfa1-YFP (S. cerevisiae)): binds |
| B2 |  | binds |  |
| B3 |  | binds |  |
